Reference: patent US7749984B2, “Computer-based model for identification and characterization of non-competitive inhibitors of nicotinic acetylcholine receptors and related ligand-gated ion channel receptors” (priority 2003, dated 2010)

Protein sequences, listed by entry. Tags and fused reporters are not part of them. Residues count along the entry.
UniProt P04757, 26-499: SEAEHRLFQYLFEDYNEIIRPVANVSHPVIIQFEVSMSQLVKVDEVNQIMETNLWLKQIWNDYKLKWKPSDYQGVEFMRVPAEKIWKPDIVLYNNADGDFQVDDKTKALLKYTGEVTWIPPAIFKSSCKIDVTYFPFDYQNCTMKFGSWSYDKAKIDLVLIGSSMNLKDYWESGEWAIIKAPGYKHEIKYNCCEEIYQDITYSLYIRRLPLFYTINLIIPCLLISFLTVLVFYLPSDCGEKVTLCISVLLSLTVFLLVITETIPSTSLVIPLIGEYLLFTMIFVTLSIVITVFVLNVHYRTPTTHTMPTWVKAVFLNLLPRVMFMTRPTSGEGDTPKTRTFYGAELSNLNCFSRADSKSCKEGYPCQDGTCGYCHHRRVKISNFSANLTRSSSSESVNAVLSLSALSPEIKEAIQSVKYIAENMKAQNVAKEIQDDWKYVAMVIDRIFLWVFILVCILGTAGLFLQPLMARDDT
UniProt P12392, 21-495: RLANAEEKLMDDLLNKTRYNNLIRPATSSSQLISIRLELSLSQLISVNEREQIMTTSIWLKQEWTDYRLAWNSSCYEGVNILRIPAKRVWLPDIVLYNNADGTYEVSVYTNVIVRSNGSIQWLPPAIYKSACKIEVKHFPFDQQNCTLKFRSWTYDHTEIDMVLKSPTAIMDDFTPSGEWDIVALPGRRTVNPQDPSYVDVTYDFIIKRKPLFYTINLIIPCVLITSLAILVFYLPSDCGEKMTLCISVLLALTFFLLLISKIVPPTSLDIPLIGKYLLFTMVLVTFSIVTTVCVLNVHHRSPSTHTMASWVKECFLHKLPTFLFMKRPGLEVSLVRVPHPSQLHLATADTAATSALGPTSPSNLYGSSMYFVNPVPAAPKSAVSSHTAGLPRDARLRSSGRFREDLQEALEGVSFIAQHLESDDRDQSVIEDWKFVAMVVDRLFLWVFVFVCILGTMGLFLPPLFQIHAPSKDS

Molecular target: α3β4 nAChR (Rattus norvegicus, UniProt P04757+P12392)
Assay: Nicotine-stimulated 86Rb+ efflux assay, KXα3β4R2 cell line
Format: cell-based
Parameters: host or cells: HEK293 (KXα3β4R2)
Description: After the prediction has been done based on clustering the actual values of IC50 were determined using the nicotine-stimulated ^86Rb^+ efflux assay on cell line KXα3β4R2.

`COC(=O)C1=C(C)NC(C)=C(C(=O)OC)C1c1ccccc1[N+](=O)[O-]` [nifedipine] gave an IC50 of 24.7 µM.
